The list shows a part of the results.
Compound: NC(=O)Nc1cc(-c2cccc(F)c2)sc1C(=O)N[C@H]1CCCNC1
Assay: log2 fold change, soluble protein after heating vs DMSO (PISA); higher = thermal stabilisation; K562 lysate, 10 uM; active = over 0.2 and 3.5 SD of the protein, either way, in both replicates (recomputed)
Procedure, shortened: (§1)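 K562 pellets were dounce-homogenised in PBS pH 7.4 containing 1 mM MgCl2, and the crude extract, at 1 mg/mL protein, was exposed to 10 μM compound for 30 min. Aliquots were heated for 3 min across 48°C-58°C, pooled, brought to 0.5% NP-40 at 4°C and spun at 21,000xg for 90 min, with the supernatant taken as soluble protein. TMTpro 16plex LC-MS/MS with equalised channel sums quantified that protein. Values are log-two fold changes in thermal stability relative to solvent controls, taken from duplicates.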

Chains of the proteins cited; added tags and fusions are not shown. Lines headed by an entry give the natural chain unless they say otherwise; changes in a name come on top.
UniProt O43670: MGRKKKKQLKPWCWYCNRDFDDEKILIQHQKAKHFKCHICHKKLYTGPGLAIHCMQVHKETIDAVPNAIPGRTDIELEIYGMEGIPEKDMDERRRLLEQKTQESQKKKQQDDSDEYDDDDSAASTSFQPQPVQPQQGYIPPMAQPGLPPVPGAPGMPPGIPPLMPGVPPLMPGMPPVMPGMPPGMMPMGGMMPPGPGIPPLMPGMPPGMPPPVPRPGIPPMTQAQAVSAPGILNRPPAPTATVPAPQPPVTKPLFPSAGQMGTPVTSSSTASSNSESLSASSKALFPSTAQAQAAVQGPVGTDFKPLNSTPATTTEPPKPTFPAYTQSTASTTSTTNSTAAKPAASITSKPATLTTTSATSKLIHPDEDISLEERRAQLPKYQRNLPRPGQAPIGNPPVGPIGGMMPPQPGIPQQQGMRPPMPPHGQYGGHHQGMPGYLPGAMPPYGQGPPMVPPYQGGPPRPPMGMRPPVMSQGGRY
UniProt A7E2V4, whole entry, looked up: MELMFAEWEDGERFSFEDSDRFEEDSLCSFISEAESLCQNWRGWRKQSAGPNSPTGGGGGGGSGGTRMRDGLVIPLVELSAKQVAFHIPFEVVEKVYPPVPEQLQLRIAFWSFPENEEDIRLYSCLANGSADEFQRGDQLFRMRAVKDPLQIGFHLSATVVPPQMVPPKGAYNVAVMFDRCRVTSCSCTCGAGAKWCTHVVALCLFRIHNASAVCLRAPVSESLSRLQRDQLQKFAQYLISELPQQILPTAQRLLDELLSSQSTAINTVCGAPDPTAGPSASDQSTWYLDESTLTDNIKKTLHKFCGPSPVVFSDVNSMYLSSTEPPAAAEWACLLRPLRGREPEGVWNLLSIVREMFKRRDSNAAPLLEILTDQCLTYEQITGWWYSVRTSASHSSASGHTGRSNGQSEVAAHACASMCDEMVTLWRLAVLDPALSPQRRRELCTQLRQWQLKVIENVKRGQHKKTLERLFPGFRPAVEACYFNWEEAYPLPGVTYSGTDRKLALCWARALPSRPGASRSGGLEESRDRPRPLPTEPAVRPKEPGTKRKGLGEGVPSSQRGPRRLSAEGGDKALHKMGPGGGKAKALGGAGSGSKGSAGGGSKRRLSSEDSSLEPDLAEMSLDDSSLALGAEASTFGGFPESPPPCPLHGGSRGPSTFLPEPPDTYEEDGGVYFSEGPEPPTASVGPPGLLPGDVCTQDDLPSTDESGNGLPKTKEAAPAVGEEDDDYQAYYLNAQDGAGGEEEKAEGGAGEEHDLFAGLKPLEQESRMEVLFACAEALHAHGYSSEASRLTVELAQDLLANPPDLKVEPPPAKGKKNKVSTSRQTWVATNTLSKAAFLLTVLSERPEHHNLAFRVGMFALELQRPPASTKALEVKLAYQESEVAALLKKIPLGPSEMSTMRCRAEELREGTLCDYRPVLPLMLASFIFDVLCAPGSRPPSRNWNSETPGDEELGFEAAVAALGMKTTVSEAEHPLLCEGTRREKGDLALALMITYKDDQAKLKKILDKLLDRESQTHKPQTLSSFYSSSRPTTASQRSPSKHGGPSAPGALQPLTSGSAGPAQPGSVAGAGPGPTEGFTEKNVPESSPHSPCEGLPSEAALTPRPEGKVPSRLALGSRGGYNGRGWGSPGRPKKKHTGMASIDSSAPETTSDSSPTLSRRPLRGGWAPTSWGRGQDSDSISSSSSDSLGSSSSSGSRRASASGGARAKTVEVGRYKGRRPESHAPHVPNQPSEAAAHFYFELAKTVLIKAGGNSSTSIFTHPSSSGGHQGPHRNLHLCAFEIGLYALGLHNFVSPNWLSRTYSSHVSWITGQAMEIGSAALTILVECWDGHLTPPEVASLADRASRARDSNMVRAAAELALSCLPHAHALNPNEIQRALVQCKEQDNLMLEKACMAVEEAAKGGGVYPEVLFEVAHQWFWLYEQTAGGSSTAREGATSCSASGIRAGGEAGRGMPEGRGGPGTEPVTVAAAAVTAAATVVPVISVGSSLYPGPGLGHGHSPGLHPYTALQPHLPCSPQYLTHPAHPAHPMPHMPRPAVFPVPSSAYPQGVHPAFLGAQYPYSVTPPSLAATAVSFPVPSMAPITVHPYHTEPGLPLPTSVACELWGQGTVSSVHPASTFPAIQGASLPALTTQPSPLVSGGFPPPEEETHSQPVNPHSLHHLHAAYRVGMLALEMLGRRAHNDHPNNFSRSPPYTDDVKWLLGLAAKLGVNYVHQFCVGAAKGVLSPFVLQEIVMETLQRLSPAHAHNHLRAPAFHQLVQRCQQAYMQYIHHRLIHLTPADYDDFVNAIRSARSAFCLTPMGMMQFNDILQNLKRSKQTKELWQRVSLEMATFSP
UniProt Q96IR2: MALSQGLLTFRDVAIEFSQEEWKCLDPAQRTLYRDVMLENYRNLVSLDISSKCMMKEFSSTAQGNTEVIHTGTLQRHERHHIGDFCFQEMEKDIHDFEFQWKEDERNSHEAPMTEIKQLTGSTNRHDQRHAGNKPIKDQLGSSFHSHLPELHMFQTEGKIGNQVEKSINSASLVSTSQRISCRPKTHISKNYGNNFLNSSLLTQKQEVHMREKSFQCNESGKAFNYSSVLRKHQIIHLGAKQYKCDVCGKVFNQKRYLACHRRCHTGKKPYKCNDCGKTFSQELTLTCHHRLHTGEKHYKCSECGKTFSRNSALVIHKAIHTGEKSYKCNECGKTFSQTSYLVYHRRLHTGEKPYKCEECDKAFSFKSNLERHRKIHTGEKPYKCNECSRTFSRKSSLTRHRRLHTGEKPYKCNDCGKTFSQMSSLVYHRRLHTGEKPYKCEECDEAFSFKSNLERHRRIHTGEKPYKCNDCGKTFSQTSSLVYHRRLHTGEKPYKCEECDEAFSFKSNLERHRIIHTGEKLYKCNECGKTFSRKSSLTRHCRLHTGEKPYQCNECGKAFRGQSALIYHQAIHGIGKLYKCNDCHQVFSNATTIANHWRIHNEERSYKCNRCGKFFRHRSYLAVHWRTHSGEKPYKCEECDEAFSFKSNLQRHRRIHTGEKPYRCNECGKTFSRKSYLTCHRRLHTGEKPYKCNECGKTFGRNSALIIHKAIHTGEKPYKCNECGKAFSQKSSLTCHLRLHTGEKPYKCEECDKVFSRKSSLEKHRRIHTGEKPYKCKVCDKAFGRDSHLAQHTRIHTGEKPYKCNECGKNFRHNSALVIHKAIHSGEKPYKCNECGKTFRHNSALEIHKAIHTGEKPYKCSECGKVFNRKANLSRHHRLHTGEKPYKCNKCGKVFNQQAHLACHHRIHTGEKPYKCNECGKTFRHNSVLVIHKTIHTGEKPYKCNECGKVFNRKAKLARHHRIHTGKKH
UniProt Q5T7W0: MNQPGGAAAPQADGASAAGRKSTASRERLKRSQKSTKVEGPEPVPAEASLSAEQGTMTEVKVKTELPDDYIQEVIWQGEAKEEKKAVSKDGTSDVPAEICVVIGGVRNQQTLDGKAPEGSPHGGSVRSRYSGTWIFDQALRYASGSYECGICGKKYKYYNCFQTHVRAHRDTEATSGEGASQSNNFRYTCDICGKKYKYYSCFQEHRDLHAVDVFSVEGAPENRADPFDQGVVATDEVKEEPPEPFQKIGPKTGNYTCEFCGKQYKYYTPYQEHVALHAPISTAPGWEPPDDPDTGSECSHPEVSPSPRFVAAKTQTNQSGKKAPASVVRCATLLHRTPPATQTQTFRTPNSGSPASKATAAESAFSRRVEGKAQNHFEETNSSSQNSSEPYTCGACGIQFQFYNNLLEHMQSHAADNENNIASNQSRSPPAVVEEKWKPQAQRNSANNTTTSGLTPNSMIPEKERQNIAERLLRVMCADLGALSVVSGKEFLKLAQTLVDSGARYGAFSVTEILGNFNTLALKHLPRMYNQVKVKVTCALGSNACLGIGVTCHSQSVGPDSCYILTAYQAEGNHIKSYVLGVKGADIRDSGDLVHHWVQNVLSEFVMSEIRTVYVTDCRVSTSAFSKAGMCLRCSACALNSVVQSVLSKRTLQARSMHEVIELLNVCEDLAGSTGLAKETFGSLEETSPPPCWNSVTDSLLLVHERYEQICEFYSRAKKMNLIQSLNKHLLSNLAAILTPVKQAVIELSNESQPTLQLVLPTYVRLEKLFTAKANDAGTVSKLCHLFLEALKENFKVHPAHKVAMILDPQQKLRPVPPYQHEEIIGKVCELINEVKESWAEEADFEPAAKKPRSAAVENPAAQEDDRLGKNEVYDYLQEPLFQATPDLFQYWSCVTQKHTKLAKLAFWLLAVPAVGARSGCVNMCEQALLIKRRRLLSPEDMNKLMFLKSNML
UniProt O60232: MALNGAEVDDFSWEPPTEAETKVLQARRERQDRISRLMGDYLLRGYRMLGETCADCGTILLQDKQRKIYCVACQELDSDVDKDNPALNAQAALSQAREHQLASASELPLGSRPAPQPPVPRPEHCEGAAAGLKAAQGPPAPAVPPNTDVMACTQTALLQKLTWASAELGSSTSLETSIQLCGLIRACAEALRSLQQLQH
UniProt Q9Y5V0: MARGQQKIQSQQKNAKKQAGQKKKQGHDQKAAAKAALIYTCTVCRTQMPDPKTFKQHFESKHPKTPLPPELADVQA
UniProt Q9ULU4: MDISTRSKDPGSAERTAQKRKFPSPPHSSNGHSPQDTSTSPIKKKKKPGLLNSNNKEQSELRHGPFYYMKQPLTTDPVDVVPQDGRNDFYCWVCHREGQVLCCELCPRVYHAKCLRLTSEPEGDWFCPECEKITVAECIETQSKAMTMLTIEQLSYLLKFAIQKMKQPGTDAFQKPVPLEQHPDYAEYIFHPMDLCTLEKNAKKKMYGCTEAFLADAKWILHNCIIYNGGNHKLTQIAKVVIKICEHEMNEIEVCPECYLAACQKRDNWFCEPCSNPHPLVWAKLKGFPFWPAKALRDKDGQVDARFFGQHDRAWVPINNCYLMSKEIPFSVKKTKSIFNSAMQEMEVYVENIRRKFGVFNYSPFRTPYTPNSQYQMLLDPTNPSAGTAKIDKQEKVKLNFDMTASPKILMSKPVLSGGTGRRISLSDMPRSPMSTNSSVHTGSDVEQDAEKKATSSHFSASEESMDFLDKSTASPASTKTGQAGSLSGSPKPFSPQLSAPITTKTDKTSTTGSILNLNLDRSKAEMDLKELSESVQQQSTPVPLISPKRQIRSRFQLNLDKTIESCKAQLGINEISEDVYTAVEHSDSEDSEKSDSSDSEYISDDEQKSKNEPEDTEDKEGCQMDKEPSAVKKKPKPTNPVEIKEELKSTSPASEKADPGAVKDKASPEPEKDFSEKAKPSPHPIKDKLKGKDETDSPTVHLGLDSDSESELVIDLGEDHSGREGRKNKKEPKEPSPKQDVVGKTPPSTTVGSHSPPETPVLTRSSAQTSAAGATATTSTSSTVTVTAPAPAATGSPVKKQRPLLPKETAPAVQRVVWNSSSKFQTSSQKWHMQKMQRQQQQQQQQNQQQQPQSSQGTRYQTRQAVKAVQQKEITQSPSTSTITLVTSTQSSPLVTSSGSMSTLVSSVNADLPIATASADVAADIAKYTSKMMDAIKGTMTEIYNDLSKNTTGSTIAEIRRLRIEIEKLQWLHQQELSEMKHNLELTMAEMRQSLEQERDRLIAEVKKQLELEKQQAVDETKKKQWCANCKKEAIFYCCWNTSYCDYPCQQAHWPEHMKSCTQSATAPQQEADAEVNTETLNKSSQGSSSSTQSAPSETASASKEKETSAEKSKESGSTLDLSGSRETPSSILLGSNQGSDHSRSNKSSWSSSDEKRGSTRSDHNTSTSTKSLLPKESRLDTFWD
UniProt Q6DD87: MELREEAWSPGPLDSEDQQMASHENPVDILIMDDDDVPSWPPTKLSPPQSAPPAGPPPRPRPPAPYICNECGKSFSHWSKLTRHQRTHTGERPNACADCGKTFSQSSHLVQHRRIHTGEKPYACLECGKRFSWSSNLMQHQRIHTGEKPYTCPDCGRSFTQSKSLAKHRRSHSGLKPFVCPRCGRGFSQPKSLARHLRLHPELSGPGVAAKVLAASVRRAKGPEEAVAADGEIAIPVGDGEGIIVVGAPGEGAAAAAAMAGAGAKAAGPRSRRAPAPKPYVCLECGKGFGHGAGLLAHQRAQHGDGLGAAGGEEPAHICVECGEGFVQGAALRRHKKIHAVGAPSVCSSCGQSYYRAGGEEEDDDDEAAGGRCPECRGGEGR
UniProt Q499Z4: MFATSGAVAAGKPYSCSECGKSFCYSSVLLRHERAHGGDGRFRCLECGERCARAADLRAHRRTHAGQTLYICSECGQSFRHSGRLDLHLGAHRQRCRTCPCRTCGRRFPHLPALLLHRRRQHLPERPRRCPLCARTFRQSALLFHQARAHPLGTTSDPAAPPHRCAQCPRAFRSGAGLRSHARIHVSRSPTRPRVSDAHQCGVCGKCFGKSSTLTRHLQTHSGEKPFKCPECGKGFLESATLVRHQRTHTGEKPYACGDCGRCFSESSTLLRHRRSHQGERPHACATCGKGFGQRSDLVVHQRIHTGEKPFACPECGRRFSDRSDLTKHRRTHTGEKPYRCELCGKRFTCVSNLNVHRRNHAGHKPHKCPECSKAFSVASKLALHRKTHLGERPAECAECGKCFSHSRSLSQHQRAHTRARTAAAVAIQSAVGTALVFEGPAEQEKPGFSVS

log2 fold change, inactive:
ZNF207 isoform 4 (UniProt O43670) 0.04
ZNF8 (UniProt P17098) 0.131
ZSWIM8 isoform 4 (UniProt A7E2V4) 0.067
ZNF845 (UniProt Q96IR2) 0.122
ZNF644 (UniProt Q9H582) 0.058
ZNF618 (UniProt Q5T7W0) 0.007
ZHX1 (UniProt Q9UKY1) 0.039
ZNHIT6 (UniProt Q9NWK9) 0.087
ZMYM4 (UniProt Q5VZL5) 0.067
ZMYM2 (UniProt Q9UBW7) 0.056
ZMYM3 (UniProt Q14202) 0.009
ZNF318 (UniProt Q5VUA4) -0.004

Compound: NC(=O)c1cnc(N[C@@H]2CCCC[C@@H]2N)nc1Nc1cccc(-n2nccn2)c1
Assay: as above
Procedure, shortened: as §1

log2 fold change, inactive:
ZNF143 (UniProt P52747) -0.052
ZNRD2 (UniProt O60232) -0.037
ZNF706 (UniProt Q9Y5V0) 0.002
ZMAT2 (UniProt Q96NC0) 0.002
ZNRD2 (UniProt G3V1B8) -0.011
ZWILCH (UniProt Q9H900) 0.017
ZNF638 (UniProt Q14966) -0.026
ZMYND8 isoform 19 (UniProt Q9ULU4) 0.009
ZNF622 (UniProt Q969S3) 0.031
ZNF787 (UniProt Q6DD87) -0.044
hCG_1984214 (UniProt I3L0E3) 0.012
ZZEF1 (UniProt O43149) 0.021
ZKSCAN8 (UniProt Q15776) -0.029
ZMIZ1 (UniProt Q9ULJ6) -0.009
ZMIZ2 (UniProt Q8NF64) 0.169
ZNF24 (UniProt P17028) 0.001
ZNF672 (UniProt Q499Z4) 0.017
ZNF609 (UniProt O15014) -0.015
ZNF511 (UniProt Q8NB15) -0.041
ZNF207 isoform 4 (UniProt O43670) -0.022
ZNF845 (UniProt Q96IR2) 0.016
ZNF618 (UniProt Q5T7W0) 0.053
ZHX1 (UniProt Q9UKY1) -0.047
ZNHIT6 (UniProt Q9NWK9) 0.028
ZMYM4 (UniProt Q5VZL5) 0.021
ZMYM2 (UniProt Q9UBW7) 0.099
ZMYM3 (UniProt Q14202) -0.015
ZNF318 (UniProt Q5VUA4) -0.078

— the supplement of paper PMC10849652
